Taken from: PubChem BioAssay AID1259424 (University of Nebraska Medical Center, 2018)

Screen: 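Rank knockdowns across the genome by resemblance to the KSR1 depletion profile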 (primary screen)
Cell system: human HCT116 colon cancer cells
Reagents: siRNA pool against human genes, 50 nM
Measured: 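Log2 levels of six mRNAs (branched-DNA multiplex), adjusted by two reference genes and the non-targeting median, then scored against the average KSR1 knockdown pattern as Pearson r and euclidean distance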
Scale: mean correlation with KSR1 profile and KSR1 correlation: higher = expression change more like KSR1 knockdown; mean distance from KSR1 profile: higher = expression change less like KSR1 knockdown
The whole screen tested about 14,000 reagents; this is a part drawn at random. 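Higher correlation or smaller distance means closer resemblance to KSR1 loss; control wells, including KSR1 knockdowns, recur on many plates.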 Not all columns of the deposit are shown. Reagent sequences are not shown. Not stated in the record: the time to read-out.

no.	gene symbol	mean correlation with KSR1 profile	mean distance from KSR1 profile	KSR1 correlation, replicate 1
1	SIRT7 (sirtuin 7)	-0.142	1.34	-0.258
2	DNAI4 (dynein axonemal intermediate chain 4)	0.704	1.75	0.651
3	BCL2 (BCL2 apoptosis regulator)	0.642	1.96	0.797
4	HSD17B1 (hydroxysteroid 17-beta dehydrogenase 1)	0.145	1.58	0.29
5	ZFHX3 (zinc finger homeobox 3)	0.259	1.93	0.0609
6	CRISPLD2 (cysteine rich secretory protein LCCL domain containing 2)	0.346	2.2	0.2
7	UBASH3A (ubiquitin associated and SH3 domain containing A)	-0.0256	3.99	-0.0187
8	CD6 (CD6 molecule)	0.589	1.2	0.79
9	OR2T1 (olfactory receptor family 2 subfamily T member 1)	0.833	1.53	0.881
10	MRPL19 (mitochondrial ribosomal protein L19)	0.0592	2.6	0.108
11	EIF5A2 (eukaryotic translation initiation factor 5A2)	-0.0528	1.71	-0.0481
12	DNAJB11 (DnaJ heat shock protein family (Hsp40) member B11)	-0.48	2.19	-0.344
13	CENPM (centromere protein M)	0.504	2.26	0.382
14	ZSCAN20 (zinc finger and SCAN domain containing 20)	-0.201	3.58	-0.0217
15	CIAO2B (cytosolic iron-sulfur assembly component 2B)	-0.206	1.74	-0.0688
16	ATP5MK (ATP synthase membrane subunit k)	-0.532	2.54	-0.735
17	COMMD8 (COMM domain containing 8)	-0.569	7.42	-0.639
18	FHOD3 (formin homology 2 domain containing 3)	0.703	1.38	0.463
19	SIRT3 (sirtuin 3)	-0.798	1.9	-0.6
20	XAGE2 (X antigen family member 2)	-0.35	4.08	-0.54
21	CMBL (carboxymethylenebutenolidase homolog)	0.221	2.44	0.248
22	CAD	-0.227	2.32	-0.0332
23	IL1A (interleukin 1 alpha)	0.0997	2.09	0.0865
24	SLC1A7	-0.387	2.76	-0.344
25	KCNK6 (potassium two pore domain channel subfamily K member 6)	-0.0447	2.52	0.125
26	NFYB (nuclear transcription factor Y subunit beta)	0.0672	3.03	0.299
27	USP8 (ubiquitin specific peptidase 8)	-0.812	1.41	-0.228
28	NDUFC2 (NADH:ubiquinone oxidoreductase subunit C2)	-0.228	1.8	0.0606
29	LRP2BP (LRP2 binding protein)	-0.197	3.93	-0.143
30	ACOT12 (acyl-CoA thioesterase 12)	0.316	3.02	-0.344
31	TNNI3K (TNNI3 interacting kinase)	-0.0695	1.98	-0.478
32	GTF3C3 (general transcription factor IIIC subunit 3)	0.196	2.03	0.116
33	SLC5A6	0.0869	1.75	0.223
34	RPL13 (ribosomal protein L13)	0.427	3.46	-0.0445
